# Reference: PMC8797470, “Disruption of the pentraxin 3/CD44 interaction as an efficient therapy for triple‐negative breast cancers” (Clinical and Translational Medicine, 2022)
# The chains behind the UniProt entries cited, without tags or fusion partners. Residues count along the entry.
# UniProt P16070, residues 21-742: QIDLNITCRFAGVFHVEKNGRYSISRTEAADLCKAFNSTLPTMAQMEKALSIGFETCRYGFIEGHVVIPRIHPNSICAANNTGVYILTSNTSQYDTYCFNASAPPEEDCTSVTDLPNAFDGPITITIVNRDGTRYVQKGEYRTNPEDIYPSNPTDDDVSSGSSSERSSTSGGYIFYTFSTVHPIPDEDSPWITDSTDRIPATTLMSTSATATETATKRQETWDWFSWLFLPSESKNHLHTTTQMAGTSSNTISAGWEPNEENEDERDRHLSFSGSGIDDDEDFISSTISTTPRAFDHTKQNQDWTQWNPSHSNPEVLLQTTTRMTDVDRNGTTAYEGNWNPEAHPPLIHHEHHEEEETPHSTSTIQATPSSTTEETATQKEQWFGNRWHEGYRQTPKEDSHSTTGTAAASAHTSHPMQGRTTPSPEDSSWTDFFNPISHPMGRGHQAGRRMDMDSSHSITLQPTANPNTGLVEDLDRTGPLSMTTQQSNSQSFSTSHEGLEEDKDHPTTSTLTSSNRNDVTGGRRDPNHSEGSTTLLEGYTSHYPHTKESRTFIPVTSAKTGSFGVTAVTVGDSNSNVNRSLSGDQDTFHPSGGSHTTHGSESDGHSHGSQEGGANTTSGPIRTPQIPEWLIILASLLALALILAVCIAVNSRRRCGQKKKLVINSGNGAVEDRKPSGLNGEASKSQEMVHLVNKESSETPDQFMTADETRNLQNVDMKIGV
# UniProt P26022, residues 18-381: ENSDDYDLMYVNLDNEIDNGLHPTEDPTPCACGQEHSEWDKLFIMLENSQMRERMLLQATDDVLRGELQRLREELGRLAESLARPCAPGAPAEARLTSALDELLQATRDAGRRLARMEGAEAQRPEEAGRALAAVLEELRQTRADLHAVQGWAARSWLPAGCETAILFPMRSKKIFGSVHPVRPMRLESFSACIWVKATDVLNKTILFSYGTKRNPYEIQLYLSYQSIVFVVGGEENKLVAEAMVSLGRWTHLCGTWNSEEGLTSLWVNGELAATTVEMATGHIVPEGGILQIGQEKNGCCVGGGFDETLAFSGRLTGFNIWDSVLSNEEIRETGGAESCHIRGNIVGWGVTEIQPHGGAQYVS
# Results are given in words; binding and its absence hold for the method and conditions named. In cells and extracts the contact can be indirect. Some results given as binding are weak or reduced against the parent protein; the word gives no strength.
# Columns and labels:
# [1] = target: CD44 of MDA-MB-231 cells (human (endogenous in MDA-MB-231)) (UniProt P16070); assay: proximity ligation; MDA-MB-231 cells on coverslips treated with or without His-PTX3 for 1 h, fixed; anti-His and anti-CD44 (active form) antibodies; puncta per cell counted; only the binder purified
# [2] = target: CD44 of MDA-MB-231 cells (human (endogenous in MDA-MB-231)) (UniProt P16070); assay: co-IP; MDA-MB-231 membrane proteins (Mem-PER Plus kit) incubated with His-PTX3, then with PTX3 antibody or CD44 antibody at 4°C overnight, protein-A/G agarose, RIPA washes, Western blot; IgG as negative control; only the binder purified
substance,measurement,setting,value
recombinant His/PTX3 (pentraxin 3) from Expi293F human cells (from UniProt P26022 18-381) (ligand),binding,[1],binds
same,binding,[2],binds
